Consider 42 sequences from the supplement of paper PMC7877785.

± gives the uncertainty stated by the source. Many entries were measured with a wide error.

This series is described as follows: self-splicing fitness, log relative to wild type (ln ratio); higher = more splicing; Tetrahymena group I intron in knt gene, E. coli kanamycin selection, DiMSum; sequences stand for … in CUCUCU…GGAGGGAAAAGUUAUCAGGCAUGCACCUGGUAGCUAGUCUUUAAACCAAUAGAUUGCAUCGGUUUAAAAGGCAAGACCGUCAAAUUGCGGGAAAGGGGUCAACAGCCGUUCAGUACCAAGUCUCAGGGGAAACUUUGAGAUGGCCUUGCAAAGGGUAUGGUAAUAAGCUGACGGACAUGGUCCUAACCACGCAGCCAAGUCCUAAGUCAACAGAUCUUCUGUUGAUAUGGAUGCAGUUCACAGACUAAAUGUCGGUCGGGGAAGAUGUAUUCUUCUCAUAAGAUAUAGUCGGACCUCUCCUUAAUGGGAGCUAGCGGAUGAAGUGAUGCAACACUGGAGCCGCUGGGAACUAAUUUGUAUGCGAAAGUAUAUUGAUUAGUUUUGGAGUACUCGUGGUCG
Put shortly:
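Pooled colonies went to amplicon sequencing on an Illumina HiSeq 2500 after six replicate transformations. The plates were LB agar with 100 μg/mL carbenicillin, 50 μM IPTG and 0.2% rhamnose, with or without 25 μg/mL kanamycin, incubated overnight at 37°C or 30°C. The E. coli BL21(DE3) library had all eight P1ex-region intron nucleotides randomised, the intron placed in the knt kanamycin-resistance gene on pET-22b(+). DiMSum fitness is the error-weighted combination of replicate fold changes, kanamycin against none, normalised to wild type.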

As to CAUGAGCAAUAUUACGGCUC, the “self-splicing fitness (ln)” value (30 °C) is -4.23 ± 0.6 and the “self-splicing fitness (ln)” value (37 °C) was -2.03 ± 1.1. Turning to GGUCAGCAAUAUUACGAGCA, the “self-splicing fitness (ln)” value (37 °C) is -0.442 ± 0.51. Consider UCUUAGCAAUAUUACGACUA, for which the “self-splicing fitness (ln)” value (30 °C) was -3.03 ± 0.78. Regarding GUGUAGCAAUAUUACGGAGC, for the setting “30 °C”, the “self-splicing fitness (ln)” value is -1.85 ± 0.56. Turning to GGCGAGCAAUAUUACGUUGC, the “self-splicing fitness (ln)” value is, setting by setting: (30 °C) -3.52 ± 0.61; (37 °C) -1.88 ± 0.67. Turning to CUGAAGCAAUAUUACGCAAC, the “self-splicing fitness (ln)” value (30 °C) is -4.79 ± 0.59. In the case of CUGAAGCAAUAUUACGCAAA, the “self-splicing fitness (ln)” value (37 °C) was -1.33 ± 1.2. Turning to GACGAGCAAUAUUACGAAUC, the “self-splicing fitness (ln)” value (30 °C) is -3.06 ± 0.79. Still for that read-out and setting: for GGCGAGCAAUAUUACGAGCC the value was -0.828 ± 1. In the case of CACGAGCAAUAUUACGGCCA, where the note is “30 °C”, the “self-splicing fitness (ln)” value was -3.31 ± 0.63. With AUAAAGCAAUAUUACGUCUU, the “self-splicing fitness (ln)” value (30 °C) was 0.183 ± 0.05 and the “self-splicing fitness (ln)” value (37 °C) stood at 0.29 ± 0.073.

Consider GUUUAGCAAUAUUACGACCG, for which the “self-splicing fitness (ln)” value is -2.97 ± 0.83 (30 °C) and -2.36 ± 0.57 (37 °C). In the case of GCUCAGCAAUAUUACGGAGC, the “self-splicing fitness (ln)” value (30 °C) is -3.94 ± 0.51. For GCGAAGCAAUAUUACGCUCC, the “self-splicing fitness (ln)” value reads like this: (30 °C) -2.79 ± 1.2; (37 °C) -0.681 ± 1.4. The matching figures for CUGGAGCAAUAUUACGCGAU: -2.76 ± 0.16 and -1.9 ± 0.15. On to CAGCAGCAAUAUUACGAGAA, for which the “self-splicing fitness (ln)” value (30 °C) is -4.29 ± 1.1. Consider CAUGAGCAAUAUUACGGACG, for which the “self-splicing fitness (ln)” value is, setting by setting: (30 °C) -0.912 ± 0.087; (37 °C) -0.391 ± 0.11. For CUAUAGCAAUAUUACGUUCC, the “self-splicing fitness (ln)” value is, setting by setting: (30 °C) -3.81 ± 1; (37 °C) -2.76 ± 0.53.

In the case of UAGGAGCAAUAUUACGUGCC, for the setting “30 °C”, the “self-splicing fitness (ln)” value is -3.81 ± 0.72. On to AAAUAGCAAUAUUACGCAGA, for which, for the setting “37 °C”, the “self-splicing fitness (ln)” value is -3.04 ± 0.53. As for GUGUAGCAAUAUUACGCAAC, the “self-splicing fitness (ln)” value (30 °C) was -2.77 ± 0.78.

UCCUAGCAAUAUUACGAAAG: the “self-splicing fitness (ln)” value (37 °C) was -3.53 ± 0.6.

For the sequence UCAGAGCAAUAUUACGCUCU, the “self-splicing fitness (ln)” value by setting is: (30 °C) -3.03 ± 1.1; (37 °C) -2.51 ± 0.64. Consider CUGGAGCAAUAUUACGCCUU, for which, for the setting “30 °C”, the “self-splicing fitness (ln)” value was -4.16 ± 1. As to CUACAGCAAUAUUACGGUGC, the “self-splicing fitness (ln)” value is -4.58 ± 0.28 (30 °C) and -2 ± 0.17 (37 °C). For GGGUAGCAAUAUUACGAACA, the “self-splicing fitness (ln)” value (30 °C) was -1.63 ± 0.54. Regarding CUGCAGCAAUAUUACGUCCA, the “self-splicing fitness (ln)” value (30 °C) was -4.07 ± 0.6 and the “self-splicing fitness (ln)” value (37 °C) was -3.54 ± 0.74.

Regarding GGUCAGCAAUAUUACGCCGA, the “self-splicing fitness (ln)” value (30 °C) is -2.73 ± 0.55. As for GGUGAGCAAUAUUACGCUCC, the “self-splicing fitness (ln)” value (37 °C) was -2.08 ± 0.81. Take UUGUAGCAAUAUUACGGCGC: where the note is “30 °C”, the “self-splicing fitness (ln)” value is -4.14 ± 0.51.

As to AGUCAGCAAUAUUACGGCCC, the “self-splicing fitness (ln)” value (30 °C) is -0.436 ± 0.12 and the “self-splicing fitness (ln)” value (37 °C) was -0.0813 ± 0.18. For CCUUAGCAAUAUUACGAUAU, the “self-splicing fitness (ln)” value reads like this: (30 °C) -2.62 ± 0.62; (37 °C) -1.98 ± 0.53. For UCCAAGCAAUAUUACGAACC, for the setting “37 °C”, the “self-splicing fitness (ln)” value is -2.39 ± 1.1. In the case of UCUGAGCAAUAUUACGAGCA, the “self-splicing fitness (ln)” value (30 °C) is -2.71 ± 0.54. On to GCUUAGCAAUAUUACGCAAG, for which the “self-splicing fitness (ln)” value (30 °C) was -4.01 ± 0.6. For the sequence UCAAAGCAAUAUUACGUUGC, the “self-splicing fitness (ln)” value is, setting by setting: (30 °C) -3.48 ± 0.19; (37 °C) -3.23 ± 0.26. With GAUGAGCAAUAUUACGCUUC, the “self-splicing fitness (ln)” value (37 °C) was -1.86 ± 0.6. As for GGAGAGCAAUAUUACGGGGU, the “self-splicing fitness (ln)” value by setting is: (30 °C) -4.14 ± 0.73; (37 °C) -4.08 ± 1.

With UUCUAGCAAUAUUACGAAUG, the “self-splicing fitness (ln)” value (37 °C) was -3.17 ± 0.61. CCGUAGCAAUAUUACGUGCU: where the note is “30 °C”, the “self-splicing fitness (ln)” value is -4.7 ± 0.59. As to UAUUAGCAAUAUUACGGUCC, the “self-splicing fitness (ln)” value reads like this: (30 °C) -2.93 ± 1.1; (37 °C) -1.79 ± 0.56. For the sequence GCCAAGCAAUAUUACGGGCG, the “self-splicing fitness (ln)” value was -1.36 ± 0.09 (30 °C) and -0.322 ± 0.11 (37 °C).
